From PubChem BioAssay record AID1080 (Emory University Molecular Libraries Screening Center, 2008).

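A counter-screen in EP4-overexpressing cells measuring cyclic AMP with a time-resolved FRET kit under weak PGE2 stimulation. Compounds were tested at 20 µM final. A low (about EC15) PGE2 dose was present. Percent cAMP induction as a fraction of the 1 µM PGE2 response, averaged over three replicates; a higher value means more cAMP.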

Values are in %. Common to all entries: measured here: EP4 receptor counter-screen. Part of the compounds only, not a random draw; the main read-out is not listed here.

SMILES,tested on / at,cAMP induction (%)
C#CCn1c(S(=O)(=O)Cc2ccc(F)cc2)nc(-c2ccccc2)c1-c1ccccc1,percent of 1 uM PGE2 response; plus low (about EC15) PGE2 agonist,-4.877
O=C(Cc1ccccc1)Nc1ccccc1N1CCN(c2ccccc2)CC1,percent of 1 uM PGE2 response; plus low (about EC15) PGE2 agonist,7.597
O=S(=O)(c1cccs1)N1CN(Cc2cccs2)c2nc3ccccc3nc21,percent of 1 uM PGE2 response; plus low (about EC15) PGE2 agonist,-12.33
CC(=O)CSc1nc(-c2cccs2)c(C#N)c(=O)[nH]1,percent of 1 uM PGE2 response; plus low (about EC15) PGE2 agonist,68.15
O=c1cc(N2CCCCC2)c(-c2ccccc2)nn1Cc1ccccc1Cl,percent of 1 uM PGE2 response; plus low (about EC15) PGE2 agonist,-4.587
Cn1c(=O)[nH]c(=O)c2c1nc(N1CCCCCC1)n2Cc1cccc2ccccc12,percent of 1 uM PGE2 response; plus low (about EC15) PGE2 agonist,12.41
CCOP(=O)(OCC)c1nc(-c2cccc3ccccc23)oc1N1CCCCC1,percent of 1 uM PGE2 response; plus low (about EC15) PGE2 agonist,-4.657
Cc1ccc(C(=O)Nc2ccccc2C(=O)NCc2ccccc2)cc1,percent of 1 uM PGE2 response; plus low (about EC15) PGE2 agonist,-13.46
C=CCn1c(CNC(=O)c2cccs2)nnc1SCC(=O)c1ccc(Br)cc1,percent of 1 uM PGE2 response; plus low (about EC15) PGE2 agonist,-13.79
CC1C(c2ccccc2)N(C)C(c2ccccc2)C(C)C1(O)C#Cc1ccccc1 (centres unmarked),percent of 1 uM PGE2 response; plus low (about EC15) PGE2 agonist,-0.4233
Cc1cccc(-n2c(CCn3nc(C)c([N+](=O)[O-])c3C)n[nH]c2=S)c1,percent of 1 uM PGE2 response; plus low (about EC15) PGE2 agonist,4.507
Cc1ccc(C)n1-n1c(C)nc2scc(-c3cccs3)c2c1=O,percent of 1 uM PGE2 response; plus low (about EC15) PGE2 agonist,5.053
CC(=O)C1CC[C@H]2C3CC[C@H]4C[C@H](O)CC[C@]4(C)C3CC[C@]12C (some centres unmarked),-,-6.63
Cc1cccc(/N=C/c2c(O)ccc3oc4c(c23)CCCC4)n1,percent of 1 uM PGE2 response; plus low (about EC15) PGE2 agonist,-6.58
CCCCOc1ccccc1NC(=O)c1scc2c1OCCO2,percent of 1 uM PGE2 response; plus low (about EC15) PGE2 agonist,-14.02
CCOc1nc(-c2ccccc2O)nc2ccccc12,percent of 1 uM PGE2 response; plus low (about EC15) PGE2 agonist,7.627
CC1CCc2cc(F)cc3c(O)c(C(=O)NCc4ccco4)c(=O)n1c23 (centres unmarked),percent of 1 uM PGE2 response; plus low (about EC15) PGE2 agonist,53.19
Cn1c(=O)c(NC2CCCCC2)c2c3c(cccc31)C(=O)c1ccccc1-2,percent of 1 uM PGE2 response; plus low (about EC15) PGE2 agonist,-2.823
Cc1ccc(-n2c(Cc3cccc4ccccc34)n[nH]c2=S)c(C)c1,percent of 1 uM PGE2 response; plus low (about EC15) PGE2 agonist,0.31
Cc1cc(C)n(-c2cc(-c3ccccc3)nc(C)n2)n1,percent of 1 uM PGE2 response; plus low (about EC15) PGE2 agonist,0.77
CNC(=O)NC(=O)CSc1nc(-c2cccs2)c(C#N)c(=O)[nH]1,percent of 1 uM PGE2 response; plus low (about EC15) PGE2 agonist,78.48
CCOP(=O)(OCC)c1nc(-c2ccccc2)oc1NCc1ccccc1,percent of 1 uM PGE2 response; plus low (about EC15) PGE2 agonist,-8.023
CCc1nc2c(cnn2-c2ccc(Cl)cc2)c(=O)n1-c1ccc(OC)cc1,percent of 1 uM PGE2 response; plus low (about EC15) PGE2 agonist,0.08333
FC(F)(F)c1nnc(-c2ccccc2)nc1Sc1ccccc1,percent of 1 uM PGE2 response; plus low (about EC15) PGE2 agonist,4.56
CCC1COC(c2cccn2Cc2ccc(Cl)cc2)=N1 (centres unmarked),percent of 1 uM PGE2 response; plus low (about EC15) PGE2 agonist,-1.687
O=C1CC(O)(c2ccccc2)C(c2ccccc2)=C1c1ccccc1 (centres unmarked),percent of 1 uM PGE2 response; plus low (about EC15) PGE2 agonist,1.87
O=C(N=C1SCC(=O)N1c1ccccc1Cl)c1ccccc1,percent of 1 uM PGE2 response; plus low (about EC15) PGE2 agonist,8.413
CCN(CC)C(=O)CN(c1cc2c(cc1OC)oc1ccccc12)S(=O)(=O)c1ccc(C)cc1,percent of 1 uM PGE2 response; plus low (about EC15) PGE2 agonist,-1.183
Cc1cc(=O)oc(C)c1C(=O)OC(C(=O)c1ccccc1)c1ccccc1 (centres unmarked),percent of 1 uM PGE2 response; plus low (about EC15) PGE2 agonist,-1.863
N/C(CSc1nc(-c2ccccc2)c(-c2ccccc2)o1)=N\O,percent of 1 uM PGE2 response; plus low (about EC15) PGE2 agonist,-8.653
CCOc1ccc(-c2nnc3n2N=C(c2ccc(OC)cc2)CS3)cc1,percent of 1 uM PGE2 response; plus low (about EC15) PGE2 agonist,-5.903
CN(Cc1ccccc1)c1nc2c(c(=O)[nH]c(=O)n2C)n1Cc1ccccc1Cl,percent of 1 uM PGE2 response; plus low (about EC15) PGE2 agonist,-7.383